# Laboratory results: article PMC12579238
# Results are given in words; binding and its absence hold for the method and conditions named. Binding seen in cells or lysates may run through a third protein. A yes stands for co-enrichment or nearness to the bait. Other partners may have been found.
# T1: CLN7 (human (endogenous in SH-SY5Y)) (UniProt Q8NHS3)
# T1 sequence: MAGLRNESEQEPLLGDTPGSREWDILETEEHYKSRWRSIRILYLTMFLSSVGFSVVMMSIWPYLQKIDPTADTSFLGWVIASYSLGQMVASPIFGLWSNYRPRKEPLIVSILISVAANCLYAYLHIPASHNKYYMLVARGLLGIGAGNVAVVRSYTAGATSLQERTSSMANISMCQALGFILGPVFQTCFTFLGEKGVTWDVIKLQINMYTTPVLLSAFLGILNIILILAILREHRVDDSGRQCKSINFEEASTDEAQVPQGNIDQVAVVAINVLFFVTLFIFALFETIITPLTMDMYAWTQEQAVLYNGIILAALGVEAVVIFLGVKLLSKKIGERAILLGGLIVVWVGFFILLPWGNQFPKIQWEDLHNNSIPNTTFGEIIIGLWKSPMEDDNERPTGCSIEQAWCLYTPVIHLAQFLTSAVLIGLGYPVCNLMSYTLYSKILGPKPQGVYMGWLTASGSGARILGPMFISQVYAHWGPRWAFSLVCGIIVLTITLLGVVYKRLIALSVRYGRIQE
# Target: T1, CLN7 (human (endogenous in SH-SY5Y))
# Experiment: affinity purification with mass spectrometry; endogenous CLN7 immunoprecipitated from 2.5 mg SH-SY5Y lysate with a polyclonal anti-CLN7 antibody raised against L9 (351-421aa, Proteintech) on G-sepharose beads; IgG as non-specific binding control; 4 independent replicates; cells under steady state culture conditions
binder,measurement,value
"RALGAPB (protein, UniProt Q86X10 1-1494) MYSEWRSLHLVIQNDQGHTSVLHSYPESVGREVANAVVRPLGQVLGTPSVAGSENLLKTDKEVKWTMEVICYGLTLPLDGETVKYCVDVYTDWIMALVLPKDSIPLPVIKEPNQYVQTILKHLQNLFVPRQEQGSSQIRLCLQVLRAIQKLARESSLMARETWEVLLLFLLQINDILLAPPTVQGGIAENLAEKLIGVLFEVWLLACTRCFPTPPYWKTAKEMVANWRHHPAVVEQWSKVICALTSRLLRFTYGPSFPAFKVPDEDASLIPPEMDNECVAQTWFRFLHMLSNPVDLSNPAIISSTPKFQEQFLNVSGMPQELNQYPCLKHLPQIFFRAMRGISCLVDAFLGISRPRSDSAPPTPVNRLSMPQSAAVSTTPPHNRRHRAVTVNKATMKTSTVSTAHASKVQHQTSSTSPLSSPNQTSSEPRPLPAPRRPKVNSILNLFGSWLFDAAFVHCKLHNGINRDSSMTAITTQASMEFRRKGSQMSTDTMVSNPMFDASEFPDNYEAGRAEACGTLCRIFCSKKTGEEILPAYLSRFYMLLIQGLQINDYVCHPVLASVILNSPPLFCCDLKGIDVVVPYFISALETILPDRELSKFKSYVNPTELRRSSINILLSLLPLPHHFGTVKSEVVLEGKFSNDDSSSYDKPITFLSLKLRLVNILIGALQTETDPNNTQMILGAMLNIVQDSALLEAIGCQMEMGGGENNLKSHSRTNSGISSASGGSTEPTTPDSERPAQALLRDYALNTDSAAGLLIRSIHLVTQRLNSQWRQDMSISLAALELLSGLAKVKVMVDSGDRKRAISSVCTYIVYQCSRPAPLHSRDLHSMIVAAFQCLCVWLTEHPDMLDEKDCLKEVLEIVELGISGSKSKNNEQEVKYKGDKEPNPASMRVKDAAEATLTCIMQLLGAFPSPSGPASPCSLVNETTLIKYSRLPTINKHSFRYFVLDNSVILAMLEQPLGNEQNDFFPSVTVLVRGMSGRLAWAQQLCLLPRGAKANQKLFVPEPRPVPKNDVGFKYSVKHRPFPEEVDKIPFVKADLSIPDLHEIVTEELEERHEKLRSGMAQQIAYEIHLEQQSEEELQKRSFPDPVTDCKPPPPAQEFQTARLFLSHFGFLSLEALKEPANSRLPPHLIALDSTIPGFFDDIGYLDLLPCRPFDTVFIFYMKPGQKTNQEILKNVESSRTVQPHFLEFLLSLGWSVDVGRHPGWTGHVSTSWSINCCDDGEGSQQEVISSEDIGASIFNGQKKVLYYADALTEIAFVVPSPVESLTDSLESNISDQDSDSNMDLMPGILKQPSLTLELFPNHTDNLNSSQRLSPSSRMRKLPQGRPVPPLGPETRVSVVWVERYDDIENFPLSELMTEISTGVETTANSSTSLRSTTLEKEVPVIFIHPLNTGLFRIKIQGATGKFNMVIPLVDGMIVSRRALGFLVRQTVINICRRKRLESDSYSPPHVRRKQKITDIVNKYRNKQLEPEFYTSLFQEVGLKNCSS",binding,binds
